# Laboratory results reported in PubChem BioAssay AID1671190 (National Center for Advancing Translational Sciences (NCATS), 2021).
# Amino acid sequences for entries named in this document (tags omitted).
# UniProt P18054, whole entry, looked up: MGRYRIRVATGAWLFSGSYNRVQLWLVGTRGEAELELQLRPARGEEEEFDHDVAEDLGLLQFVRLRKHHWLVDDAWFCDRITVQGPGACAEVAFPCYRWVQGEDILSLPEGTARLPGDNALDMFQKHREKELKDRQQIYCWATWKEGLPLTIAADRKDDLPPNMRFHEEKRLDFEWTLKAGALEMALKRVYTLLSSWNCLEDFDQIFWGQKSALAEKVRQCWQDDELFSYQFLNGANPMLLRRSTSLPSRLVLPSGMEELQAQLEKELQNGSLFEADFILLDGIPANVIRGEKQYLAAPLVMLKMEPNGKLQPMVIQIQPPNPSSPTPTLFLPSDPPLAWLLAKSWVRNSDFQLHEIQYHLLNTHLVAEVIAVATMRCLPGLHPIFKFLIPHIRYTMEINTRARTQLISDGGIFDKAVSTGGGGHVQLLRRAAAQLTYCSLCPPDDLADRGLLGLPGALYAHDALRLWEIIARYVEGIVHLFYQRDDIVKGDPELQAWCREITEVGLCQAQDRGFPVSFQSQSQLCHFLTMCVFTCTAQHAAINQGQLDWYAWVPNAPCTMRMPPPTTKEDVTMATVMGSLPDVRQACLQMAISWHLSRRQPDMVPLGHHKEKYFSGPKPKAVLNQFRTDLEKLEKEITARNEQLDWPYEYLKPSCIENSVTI
# “And” between values parts separate entries of the source, which are not always exact repeats. Identical values can stand only once. Screen size: about 580,000 compounds; about 6,100 (1.1%) were called active. Inconclusive results, whose numbers are uncertain, are shown with a selection of clear calls. Calls follow the shape of the dose curve; as a rule, active = well fitted inhibition curve with a large enough effect; inconclusive = small, poorly fitted or top-dose-only effect, or another doubt; inactive = no such curve, though single readings can be large or run the other way. A potency beside an inconclusive call is a rough fit, not a confirmed value.
# Target: Polyunsaturated fatty acid lipoxygenase ALOX12 (Homo sapiens) (UniProt P18054)
# Assay: Primary qHTS assay for inhibitors of human arachidonate 12S-lipoxygenase (ALOX12): Round 2
# Conditions: purified 12hLO, xylenol orange hydroperoxide absorbance; activity change, negative = inhibition: at 108 µM (top of the series) unless noted
# Summary of the method: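 Purified human 12hLO (150 nM final) in 25 mM Hepes, 0.01% Triton X-100, pH 7.0 was preincubated 15 min at room temperature with compound. Then 40 uM arachidonic acid was added, 30 min. Hydroperoxide was read by Fe-XO absorbance ratio 573/405 nm.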
# % is scaled to controls: 0 for no effect and ±100 for the full control effect; potency is read from the fitted curve at half-maximal effect.
Compound,Potency,"activity change, negative = inhibition"
Cc1cccc(NC(=O)Cn2c(=O)c(-c3noc(C)n3)c3n(c2=O)CCCCC3)c1,"inconclusive: 7.94 µM [inhibitor, full curve, poor fit]",
Cc1ccc2c(C)c(C(=O)Nc3cccc4cccnc34)oc2c1,"inconclusive: 31.6 µM [inhibitor, single point]",
CC(C)(C)c1ccc(C(=O)N2CCC3(C2)NC(=O)N(Cc2ccccc2)C3=O)cc1 (centres undefined),"inconclusive: 89.1 µM [inhibitor, single point]",
CC(=O)c1sc(NC(=O)C2CC(=O)N(Cc3ccccc3)C2)nc1-c1ccccc1 (centres undefined),"inconclusive: 44.7 µM [inhibitor, partial curve, poor fit]",
CS(=O)(=O)c1ccc(Cl)c(C(=O)NCC2CCCCC2)c1,"inconclusive: 112 µM [inhibitor, partial curve, poor fit]",
Cc1cc(=S)nc[nH]1,"inconclusive: 2.24 µM [inhibitor, full curve, poor fit]",
Cc1cccc(CN2CCN(C(c3ccccc3)c3ccc(Cl)cc3)CC2)c1 (centres undefined),"inconclusive: 9.07 µM [inhibitor, single point] and inconclusive: 8.63 µM [inhibitor, partial curve] and inconclusive: 44.7 µM [inhibitor, partial curve, poor fit]",
O=C(Nc1ccc2nc[nH]c(=O)c2c1)c1ccc(F)cc1Cl,"inconclusive: 63.1 µM [inhibitor, partial curve, poor fit]",
COCCn1nnnc1C(c1cc2cc(OC)ccc2[nH]c1=O)N1CCC(Cc2ccccc2)CC1 (centres undefined),,inactive: -39%
CCCCNc1oc(/C=C/c2cccc(OC)c2)nc1C#N,"inconclusive: 44.7 µM [inhibitor, partial curve, poor fit]",
O=C(Nc1c(-c2ccc(Cl)cc2)[nH][nH]c1=O)c1ccc(Br)cc1,"inconclusive: 22.4 µM [inhibitor, partial curve, poor fit]",
CCc1ccc2c(c1)/C(=N/OC)C(=O)N2,,inactive: -0.571%
CNc1snc(C)c1C(=O)OCc1csc(-c2ccc(F)cc2)n1,"inconclusive: 50.1 µM [inhibitor, partial curve, poor fit]",
O=C(N[C@H]1CO[C@H]2[C@@H]1OC[C@@H]2n1cc(CC2CCCCC2)nn1)C1CCCCC1,,inactive: 20.1% [at 176 µM]
Cc1ccc(NC(=O)c2c(C(F)(F)F)nn(C)c2Cl)cc1C,"inconclusive: 126 µM [inhibitor, partial curve, poor fit]",
COc1ccc(C2=Nn3c(nnc3-c3ccccn3)SC2)cc1,,inactive: -10.3%
COc1ccc(NC(=O)c2cccnc2C(=O)O)c(OC)c1,,inactive: 0%
COCC[C@]1(O)CCN(C(=O)Cc2coc3cc(C)c(Cl)cc23)C[C@H]1C,"inconclusive: 44.7 µM [inhibitor, partial curve]",
CCCc1nnc2sc(-c3cc(OC)c(OC)c(OC)c3)nn12,"inconclusive: 63.1 µM [inhibitor, partial curve, poor fit]",
CN(Cc1ccccc1)C(=O)CCC1CCN(S(=O)(=O)N(C)C)CC1,,inactive: -8.76%
O=C(CCCN1C(=O)C2CC=CCC2C1=O)Nc1cccc(F)c1 (centres undefined),"inconclusive: 39.8 µM [inhibitor, partial curve, poor fit]",
COc1cccc(OC)c1C(=O)Oc1cc(C)c2c(c1)O/C(=C\c1ccncc1)C2=O,,inactive: -12.2%

Compound,Potency,"activity change, negative = inhibition"
CN(CC(=O)Nc1ccc(Cl)c(C(F)(F)F)c1)C(=O)C1CC(=O)N(C2CCCC2)C1 (centres undefined),"inconclusive: 50.1 µM [inhibitor, partial curve, poor fit]",
Cc1c(C(=O)N/N=C/c2cccs2)nc2ccccn12,"inconclusive: 44.7 µM [inhibitor, partial curve, poor fit]",
CC(C)(CNC(=O)C(C)(C)C)CNC(=O)C(C)(C)C,,inactive: -6.64%
O=C(CSc1nc2cc(S(=O)(=O)N3CCOCC3)ccc2o1)Nc1c(F)cccc1F,"inconclusive: 44.7 µM [inhibitor, partial curve]",
NCC(=O)N1CCc2nc(-c3ccco3)nc(N3CC=CCC3)c2CC1,"inconclusive: 28.2 µM [inhibitor, single point]",
Cn1c(SCC(=O)N2CCOCC2)nnc1-c1cccc(NC(=O)c2ccccc2F)c1,"inconclusive: 70.8 µM [inhibitor, partial curve, poor fit]",
Cc1c2c(nc3ccccc13)CCSC2,active: 4.47 µM,
COC(=O)c1c(C)[nH]c(C(=O)C(C)OC(=O)c2ccc(F)cc2)c1C (centres undefined),"inconclusive: 0.199 µM [inhibitor, full curve, poor fit]",
CC1CCCCN1c1ncnc2ccccc12 (centres undefined),,inactive: -1.05%
COc1ccc([N+](=O)[O-])cc1NC(=S)Nc1ccccc1,"inconclusive: 44.7 µM [inhibitor, single point]",
CCS(=O)(=O)N1CCN(c2ccc([N+](=O)[O-])c(NCC3CCCO3)c2)CC1 (centres undefined),"inconclusive: 17.8 µM [inhibitor, partial curve, poor fit]",
CN(C)C(CNC(=O)c1ccccc1OCc1ccc(Cl)cc1)c1ccco1 (centres undefined),"inconclusive: 44.7 µM [inhibitor, partial curve, poor fit]",
Cn1c(=O)c2c(ncn2Cc2ccc(Cl)cc2)n(C)c1=O,"inconclusive: 35.5 µM [inhibitor, partial curve, poor fit]",
CC1=C(C(=O)OCC2CCCO2)C(c2ccncc2)C2=C(CCCC2=O)N1 (centres undefined),,inactive: 129%
CCN1CCN(C(c2ccccc2Cl)c2c(O)cc(C)n(Cc3ccco3)c2=O)CC1 (centres undefined),"inconclusive: 50.1 µM [inhibitor, partial curve, poor fit]",
Cc1cnc(C(=O)Nc2nnc(C(C)C)s2)cn1,,inactive: 4.89%
Cc1cccc(Cn2nnc3c(=O)[nH]c(C4CCCN(C(=O)c5ccccc5Cl)C4)nc32)c1 (centres undefined),"inconclusive: 141 µM [inhibitor, partial curve, poor fit] and inconclusive: 70.8 µM [inhibitor, partial curve, poor fit]",
CC(C)Cc1noc(CN(C)C(=O)c2cc(C(C)C)n3ncnc3n2)n1,,inactive: 43%
CCOCCCN(C)C1CCN(S(=O)(=O)c2csc(C(N)=O)c2)CC1,"inconclusive: 100 µM [inhibitor, single point]",
O=c1cc(N2CCCCC2)c(-c2ccccc2)nn1Cc1c(Cl)cccc1Cl,"inconclusive: 56.2 µM [inhibitor, single point]",
CCCNC(=S)Nc1ccc(Cl)c(Cl)c1,,inactive: -6.18%
c1cc2c(c(NCc3ccncc3)c1)CCCC2,"inconclusive: 35.5 µM [inhibitor, single point]",

Compound,Potency,"activity change, negative = inhibition"
Cc1ccc(CNC(=O)Cn2c(=O)oc3ccccc32)o1,"inconclusive: 141 µM [inhibitor, partial curve, poor fit]",
c1ccc(C2=Nn3c(nnc3-c3cnccn3)SC2)cc1,"inconclusive: 39.8 µM [inhibitor, partial curve, poor fit]",
CC(C)(C)NC(=O)C(c1ccncc1)N(Cc1cccs1)C(=O)Cn1nnc(-c2ccc(F)cc2)n1 (centres undefined),,inactive: 0%
NC(c1ccccc1)c1csc(NC(=O)Nc2ccc(OC(F)(F)F)cc2)n1 (centres undefined),"inconclusive: 100 µM [inhibitor, single point]",
Cc1ccc(NC(=S)NC(=O)/C=C/c2ccco2)c(O)c1,"inconclusive: 44.7 µM [inhibitor, partial curve, poor fit]",
CC(=O)Nc1cc(-c2nc3cc(C)ccc3o2)ccc1Cl,,inactive: 3.56%
Cc1ccc(Cn2cc(CN3CC(N4CCCCC4)CS3(=O)=O)nn2)cc1 (centres undefined),"inconclusive: 112 µM [inhibitor, single point]",
CC1CCN(C(=O)C(C)NCc2ccc(F)cc2)CC1 (centres undefined),"inconclusive: 0.631 µM [inhibitor, full curve, poor fit]",
O=C(O)c1cnn2c(-c3ccccc3)ccnc12,"inconclusive: 44.7 µM [inhibitor, partial curve, poor fit]",
CCN1CCN(C(=O)c2ccc(S(=O)(=O)Nc3ccccc3)cc2)CC1,"inconclusive: 44.7 µM [inhibitor, partial curve, poor fit]",
Cc1cc(C(=O)C(=O)Nc2nncs2)c(C)n1-c1ccc(Cl)cc1,"inconclusive: 56.2 µM [inhibitor, partial curve, poor fit]",
O=C(CN1CCC(C(=O)O)CC1)Nc1ccccc1Oc1ccccc1,"inconclusive: 141 µM [inhibitor, single point]",
Cc1ccc(-n2ncc(C(=O)Nc3cc(Cl)ccc3Cl)c2C2CCNCC2)cc1,"inconclusive: 7.94 µM [inhibitor, full curve]",
CCCn1c2ccccc2c2cnn(CC(=O)NCCN(C)C)c(=O)c21,,inactive: 0%
CNc1ccnc(-c2c(C)noc2C)n1,"inconclusive: 28.2 µM [inhibitor, partial curve, poor fit]",
CC(=O)c1ccc(SCC(=O)NCCC2=CCCCC2)c(F)c1,,inactive: -20.7%
COc1ccc(N2CCN(C(=O)CNS(=O)(=O)c3ccc(Br)s3)CC2)cc1,"inconclusive: 14.1 µM [inhibitor, full curve, poor fit]",
COc1ccc(C2C3=C(CCCC3=O)Nc3nc(-c4cc(OC)c(OC)c(OC)c4)nn32)cc1OC (centres undefined),,inactive: -6.61%
Cc1ccc(NC(=S)Nc2ccc(OC(F)F)c(Cl)c2)cc1Cl,"inconclusive: 44.7 µM [inhibitor, partial curve, poor fit]",
O=C1CCC[C@H]2[C@@H](Cc3ccccc3)[C@@H](NCC3CCCCC3)CC[C@]23CCCN13,"inconclusive: 100 µM [inhibitor, partial curve, poor fit]",
